Assay: in vivo
Conditions: mouse, po
Source text: Die akute Toxizität wurde an jeweils 5 männlichen und 5 weiblichen Mäusen im Gewicht von 18 - 23 Gramm pro dosi bestimmt. Die Applikation der Prüfsubstanzen erfolgte oral. Die Berechnung der LD50 wurde nach Litchfield und Wilcoxon durchgeführt.

In the case of CN1C2CCC1CC(OC(=O)C(CO)c1ccccc1)C2 (racemic) [Atropin, reference compound], the LD50 is reported as 850 mg/kg.

From EP0139627A1, “Process for the preparation of 5,10-dihydro-1H-dibenzo [B,E] [1,4] diazepin-11-ones substituted in position 5” (ARZNEIMITTELWERK DRESDEN GmbH, priority 1983, dated 1985)
